Patent publication US20150307573A1, “CYLINDRINS AS ETIOLOGIC AGENTS OF AMYLOID DISEASES” (The Regents of the University of California, priority 2012, published 2015)
These are yes or no findings as the source states them, for the method shown. Some results given as binding are weak or reduced against the parent protein; the word gives no strength.

Biological target: Abeta(30-42)-Tandem3-GG
Experiment: SDS-PAGE and SEC; self-association of identical chains

B1: Abeta(30-42)-Tandem3-GG (peptide)
peptide: GAIIGLMVGGVVIAGPAIIGLMVGGVVIAGPAIIGLMVGGVVIA
binding: binds
